The campaign covered roughly 320,000 compounds. About 22,000 (6.9%) were called active. Inconclusive means that the source gave no clear call. Such entries were picked first, then a sample of the others. Calls come from the whole dose curve; as a rule, active = well fitted inhibition curve with a large enough effect; inconclusive = small, poorly fitted or top-dose-only effect, or another doubt; inactive = no such curve, though single readings can be large or run the other way. Where the call is inconclusive, the potency comes from a doubtful curve fit.
Assay: Primary qHTS for delayed death inhibitors of the malarial parasite plastid, 96 hour incubation
Conditions: P. falciparum luciferase reporter growth; series mostly up to 28.7 µM; activity change, negative = inhibition: at the top concentration
How it was run: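 Plates of compound plus infected erythrocytes (2% hematocrit, 0.05% parasitemia final) incubate 96 hours, 37 C, 5% CO2. Detection reagent added; reduced luminescence from the parasites' luciferase reporter flags inhibition.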
% is set by controls: 0 for no effect and ±100 for the full control effect; potency is the fitted concentration of half-maximal effect.

| Compound | Potency | activity change, negative = inhibition |
| --- | --- | --- |
| Cc1oc(-c2ccc(Cl)cc2)nc1CS(=O)CC(=O)NC1CC1 (stereo not drawn) | inconclusive: 18.5 µM [inhibitor, single point] | – |
| O=C(Nc1cccc(F)c1)c1ccc2c(c1)OCO2 | – | inactive: -8.73% |
| O=C(COC(=O)c1nsc(Cl)c1Cl)NC1CCCC1 | inconclusive: 13.1 µM [inhibitor, single point] | – |
| Cc1cc(NC(=O)c2ccc(S(=O)(=O)N3CCc4ccccc43)cc2)no1 | inconclusive: 4.15 µM [inhibitor, full curve, poor fit] | – |
| COc1ccc(C(=O)NC2CC2)cc1OC1CCN(Cc2ccc(F)c(F)c2)CC1 | inconclusive: 11.7 µM [inhibitor, partial curve, poor fit] | – |
| Cn1cc(CCNC(=O)CC2C(=O)NCCN2CC(c2ccccc2)c2ccccc2)cn1 (stereo not drawn) | inconclusive: 14.7 µM [inhibitor, single point] | – |
| CC(CN(C)Cc1nc(Cc2cccc(C(F)(F)F)c2)no1)CN1CCCC1 (stereo not drawn) | inconclusive: 4.15 µM [inhibitor, partial curve, poor fit] | – |
| O=C(NC1CCCC1)C(c1ccccn1)N(C(=O)c1csnn1)C1CCCCC1 (stereo not drawn) | inconclusive: 10.4 µM [inhibitor, single point] | – |
| COc1ccc(S(=O)(=O)N2CCCC(C(=O)NC3CC3)C2)cc1Cl (stereo not drawn) | inconclusive: 3.7 µM [inhibitor, full curve] | – |
| CCn1c(/C=C/c2ccccc2[N+](=O)[O-])nc2ccccc2c1=O | inconclusive: 20.8 µM [inhibitor, single point] | – |
| COc1ccc(-c2nnc(NC(=O)c3ccc(S(=O)(=O)N4COCC4(C)C)cc3)o2)cc1 | – | inactive: -4.58% |
| O=C(c1ccco1)N1CCN(C2CC(=O)N(c3ccccc3)C2=O)CC1 (stereo not drawn) | – | inactive: 2.58% |
| O=C(Cc1cc(=O)[nH][nH]1)N/N=C/C=C/c1ccccc1 | inactive | – |
| C/C=C(\C)C(=O)N1CCC(C(=O)c2ccccc2)CC1 | – | inactive: 20.1% |
| CCC(C(=O)O)n1nnc(-c2ccc(OCc3ccccc3)c(OC)c2)n1 (stereo not drawn) | active: 4.65 µM | – |
| CC(Sc1nc(N)c(NC(=O)c2ccc(Br)o2)c(=O)[nH]1)C(=O)O (stereo not drawn) | inconclusive: 18.5 µM [inhibitor, single point] | – |
| CCOC(=O)c1c(NC(=O)CCN2C(=O)c3ccccc3C2=O)sc(C(=O)OC(C)C)c1C | inconclusive: 2.08 µM [inhibitor, partial curve, poor fit] | – |
| Brc1cc(Br)c2nc3c(cc2c1)CCC3 | – | inactive: 19.6% |
| Cc1c(C(=O)O)cccc1-c1ccc(/C=C2/NC(=O)N(c3ccccc3)C2=O)o1 | – | inactive: 7.67% |
| CC(=O)Nc1c(O)nc(SCC(=O)Nc2c(C)cccc2C)[nH]c1=O | inconclusive: 0.0037 µM [inhibitor, full curve, poor fit] | – |
| O=C(Nc1ccc(Cl)c(S(=O)(=O)N2CCOCC2)c1)c1cc(-c2ccccn2)nc2ccccc12 | inconclusive: 6.57 µM [inhibitor, partial curve, poor fit] | – |
| COc1cccc(CNC(=O)C(C)n2ccc3cc(S(=O)(=O)N4CCCCCC4)ccc32)c1 (stereo not drawn) | inconclusive: 9.28 µM [inhibitor, single point] | – |
| O=C1CCC(c2ccccc2)=NN1Cc1c(F)cccc1Cl | inconclusive: 18.5 µM [inhibitor, partial curve, poor fit] | – |

| Compound | Potency | activity change, negative = inhibition |
| --- | --- | --- |
| CN(C)c1ccc(/C=N/NC(=O)c2ccc3c(c2)OCCO3)cc1 | – | inactive: 23.9% |
| COc1ccc(CNC(=O)CCCNS(=O)(=O)c2cccc3nonc23)cc1 | inconclusive: 2.33 µM [inhibitor, partial curve, poor fit] | – |
| O=C1CN(C(=O)COc2ccc([N+](=O)[O-])cc2Cl)c2ccccc2N1 | active: 10.4 µM | – |
| CCCN1CCCC(C(=O)c2cc(C)c(OC)c(C)c2)C1 (stereo not drawn) | inconclusive: 11.7 µM [inhibitor, single point] | – |
| Oc1ccc(CN2CCc3ccccc3C2)c2cccnc12 | active: 3.7 µM | – |
| C=CCNC(=O)COc1ccc(N(C)S(=O)(=O)c2ccc(NC(C)=O)cc2)cc1 | – | inactive: -5.02% |
| Cc1ccc(-c2[nH]c3ccccc3c2SCCNC(=O)c2ccc(S(=O)(=O)N3CCOCC3)cc2)cc1 | active: 8.28 µM | – |
| CC(NC(=O)C(=O)NN=C1CCCC1)c1ccccc1 (stereo not drawn) | – | inactive: 30.2% |
| COc1ccc(C(C(=O)NC2CCCC2)N(Cc2ccccc2)C(=O)c2snc(C(N)=O)c2N)cc1OC (stereo not drawn) | inconclusive: 10.4 µM [inhibitor, single point] | – |
| O=C1C2C3CCC(C3)C2C(=O)N1Cc1ccccc1 (stereo not drawn) | inconclusive: 18.5 µM [inhibitor, single point] | – |
| Cc1ccc(NC(=O)CS(=O)CC(=O)Nc2ccc3c(c2)OCO3)cc1Cl (stereo not drawn) | inconclusive: 4.65 µM [inhibitor, partial curve, poor fit] | – |
| CCN(CC)Cc1cc(C(=O)O)c(C)o1 | inconclusive: 16.5 µM [inhibitor, partial curve, poor fit] | – |
| COc1ccccc1C1C2=C(N=c3s/c(=C/c4cccc(OCC(=O)O)c4)c(=O)n31)c1ccccc1CC2 (stereo not drawn) | inconclusive: 7.38 µM [inhibitor, partial curve, poor fit] | – |
| C#CC1(NC(=O)N(C)C)CCCCC1 | – | inactive: 22.5% |
| O=C1CS/C(=C\[N+](=O)[O-])N1c1ccc(OC(F)(F)F)cc1 | – | inactive: 50.5% |
| CN(C)c1ccc(C(=O)NCC2CCCO2)cc1 (stereo not drawn) | inconclusive: 16.5 µM [inhibitor, partial curve, poor fit] | – |
| COc1cccc(/C=C/c2n[nH]c(=O)c(C#N)c2C)c1 | inconclusive: 5.86 µM [inhibitor, partial curve] | – |
| Cc1cc(C(=O)OCC(=O)Nc2nnc(C(C)C)s2)c2ccccc2n1 | inconclusive: 14.7 µM [inhibitor, single point] | – |
| COc1nc(C)cc(C)c1S(=O)(=O)c1ccccc1 | – | inactive: 4.72% |
| CC1(C)Cc2c(C#N)c(SCCC#N)nc(N3CCOCC3)c2CS1 | active: 4.65 µM | – |
| Cc1nc(SCc2c(Cl)cccc2Cl)nc(OC(=O)N(C)C)c1C | inconclusive: 13.1 µM [inhibitor, single point] | – |
| CCOC(=O)c1sc(=S)n(-c2ccc(Cl)cc2)c1C | inconclusive: 18.5 µM [inhibitor, single point] | – |
| Cc1nn(Cc2ccc([N+](=O)[O-])cc2)c(=O)n1-c1cccc(F)c1 | inconclusive: 4.65 µM [inhibitor, single point] | – |

| Compound | Potency | activity change, negative = inhibition |
| --- | --- | --- |
| O=C(COc1ccc(S(=O)(=O)N2CCOCC2)cc1)N1CCOCC1 | inconclusive: 13.1 µM [inhibitor, single point] | – |
| COc1ccc(-c2csc(NC(=O)C3CSC4(C)CCC(=O)N34)n2)cc1 (stereo not drawn) | – | inactive: 19.6% |
| Cc1ccc(-n2nnnc2SCC(=O)c2c(N)n(C3CC3)c(=O)[nH]c2=O)cc1C | inconclusive: 0.208 µM [inhibitor, full curve] | – |
| O=C(CSc1nc(NS(=O)(=O)c2ccccc2)cc(=O)[nH]1)Nc1ccc(Cl)cc1 | inconclusive: 20.8 µM [inhibitor, partial curve, poor fit] | – |
| CN(C)CCCNC(=S)NCc1ccc(Cl)cc1 | inconclusive: 14.7 µM [inhibitor, single point] | – |
| COc1ccc(C(Nc2ccc(S(=O)(=O)NCC3CCCO3)cc2)C(=O)NC(C)(C)C)cc1OC (stereo not drawn) | – | inactive: 12.2% |
| CCOc1ccc(S(=O)(=O)NCc2ccccc2)cc1C(N)=O | inconclusive: 4.15 µM [inhibitor, single point] | – |
| Cc1ccc(-c2sc(C(=O)NN)c(C)c2C#N)cc1 | inconclusive: 18.5 µM [inhibitor, single point] | – |
| O=C(/C(=N\O)n1cncn1)c1ccc(Br)cc1Br | inconclusive: 9.28 µM [inhibitor, single point] | – |
| Cc1ccc(NC(=O)C(OC(=O)c2cc(C)oc2C)c2ccccc2)cc1 (stereo not drawn) | inconclusive: 18.5 µM [inhibitor, single point] | – |
| COC(=O)c1c(N2C(=O)CCC2=O)sc2c1CCCC2 | inconclusive: 10.4 µM [inhibitor, partial curve, poor fit] | – |
| COc1ccccc1NC(=S)N(CCCN1CCOCC1)Cc1ccccn1 | inconclusive: 18.5 µM [inhibitor, single point] | – |
| Cc1ccc(S(=O)(=O)/C(C#N)=C/c2c(N3CCOCC3)nc3c(C)cccn3c2=O)cc1 | – | inactive: -12.9% |
| CCOc1cc(S(=O)(=O)N2CCCCCC2)ccc1F | inconclusive: 9.28 µM [inhibitor, single point] | – |
| N#C/C(=C\c1ccc(Sc2nc3ccccc3[nH]2)o1)c1ccccc1 | – | inactive: -76.3% |
| CCC(C(=O)Oc1c(C(C)C)cccc1C(C)C)c1ccccc1 (stereo not drawn) | inconclusive: 8.28 µM [inhibitor, single point] | – |
| CC1CCC2(CC1)NC(=O)N(NC(=O)c1cccs1)C2=O (stereo not drawn) | – | inactive: -0.386% |
| COCC(C)N1C(=O)Cc2c1nc(N)c1c(N)nc(N3CCN(c4ccccc4F)CC3)c(C#N)c21 (stereo not drawn) | active: 1.31 µM | – |
| CC1(C)Cc2c(C#N)c(N3CCN(C(=O)c4ccco4)CC3)nc(-c3ccco3)c2CS1 | inconclusive: 18.5 µM [inhibitor, single point] | – |
| CCC1OC(=O)C[C@H](O)C(C)[C@@H](O[C@@H]2OC(C)C(O)C(N(C)C)C2O)C(CCN2CC(C)CC(C)C2)CC(C)C(=O)/C=C/C(C)=C\[C@@H]1COC1OC(C)C(O)C(OC)C1OC (stereo partly drawn) | active: 3.79 µM | – |
| COC(=O)c1cccc(-n2c(C)cc(C=O)c2C)c1C | inconclusive: 18.5 µM [inhibitor, single point] | – |
| COc1ccc(OC)c(N(CC(=O)NCCSCc2ccco2)S(=O)(=O)c2ccccc2)c1 | inconclusive: 0.262 µM [inhibitor, full curve, poor fit] | – |

Reprinted at random: 2 records from the list, in no set order.

| Compound | Potency | activity change, negative = inhibition |
| --- | --- | --- |
| CCC1OC(=O)C[C@H](O)C(C)[C@@H](O[C@@H]2OC(C)C(O)C(N(C)C)C2O)C(CCN2CC(C)CC(C)C2)CC(C)C(=O)/C=C/C(C)=C\[C@@H]1COC1OC(C)C(O)C(OC)C1OC (stereo partly drawn) | active: 3.79 µM | – |
| COc1ccc(C(Nc2ccc(S(=O)(=O)NCC3CCCO3)cc2)C(=O)NC(C)(C)C)cc1OC (stereo not drawn) | – | inactive: 12.2% |

— PubChem BioAssay AID504834 (National Center for Advancing Translational Sciences (NCATS), 2011)
